This is one part of the list. Hit calls seldom repeat between salt and free forms of one compound.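 In K562 cells expressing nanoluciferase-fused kinases, luminescence was recorded at 4 h intervals between 2 and 18 h, normalized as percent of control with DMSO at 100% and a positive control at 0%. A significant (2 sigma) signal drop marks a time point as decreased. The authors' rule for a hit is not shown and takes in more than the number of time points.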
Columns and labels:
Test in all cases: number of time points (of 5) at which kinase-Nluc abundance scored as decreased, DMSO-normalised (count); higher = more persistent destabilization
[1] = compound: CCOc1cc2ncc(C#N)c(Nc3ccc(F)c(Cl)c3)c2cc1NC(=O)/C=C/CN(C)C [Pelitinib]; details: 2.5 µM; K562; 2-18 h
[2] = compound: CCOc1nc(NC(=O)Cc2cc(OC)ccc2OC)cc(N)c1C#N [JNK Inhibitor VIII]; details: 10 µM; K562; 2-18 h
[3] = compound: CC[C@@H]1C(=O)N(C)c2cnc(Nc3ccc(C(=O)NC4CCN(C)CC4)cc3OC)nc2N1C1CCCC1; details: 10 µM; K562; 2-18 h
[4] = compound: CCc1cc2c(cc1-c1cnn(CC(=O)N(C)C)c1)C(C)(C)c1[nH]c3cc(C#N)ccc3c1C2=O; details: 2.5 µM; K562; 2-18 h
[5] = compound: CCn1c(=O)c(-c2cc(NC(=O)Nc3ccccc3)c(F)cc2Br)cc2cnc(NC)cc21 [Ripretinib]; details: 10 µM; K562; 2-18 h
[6] = compound: CN1CCN(c2ccc3nc(-c4c(N)c5c(F)cccc5[nH]c4=O)[nH]c3c2)CC1 [Dovitinib (lactate)]; details: 2.5 µM; K562; 2-18 h
[7] = compound: CN1CCN(c2ccc3nc(-c4c(N)c5c(F)cccc5[nH]c4=O)[nH]c3c2)CC1 [Dovitinib]; details: 2.5 µM; K562; 2-18 h
[8] = compound: CN1CCN(c2nc(C3=C(c4c[nH]c5ccccc45)C(=O)NC3=O)c3ccccc3n2)CC1 [Sotrastaurin]; details: 2.5 µM; K562; 2-18 h
[9] = compound: CNC(=O)c1cc(Oc2ccc(NC(=O)Nc3ccc(Cl)c(C(F)(F)F)c3)cc2)ccn1 [Sorafenib (Tosylate)]; details: 10 µM; K562; 2-18 h
[10] = compound: CN(c1ccnc(Nc2cc(N3CCOCC3)cc(N3CCOCC3)c2)n1)c1cccc2[nH]ncc12; details: 2.5 µM; K562; 2-18 h

Protein sequences, listed by entry. Tags and fused reporters are not part of them. Lines headed by an entry give the natural chain unless they say otherwise; changes in a name come on top.
UniProt Q00534, whole entry: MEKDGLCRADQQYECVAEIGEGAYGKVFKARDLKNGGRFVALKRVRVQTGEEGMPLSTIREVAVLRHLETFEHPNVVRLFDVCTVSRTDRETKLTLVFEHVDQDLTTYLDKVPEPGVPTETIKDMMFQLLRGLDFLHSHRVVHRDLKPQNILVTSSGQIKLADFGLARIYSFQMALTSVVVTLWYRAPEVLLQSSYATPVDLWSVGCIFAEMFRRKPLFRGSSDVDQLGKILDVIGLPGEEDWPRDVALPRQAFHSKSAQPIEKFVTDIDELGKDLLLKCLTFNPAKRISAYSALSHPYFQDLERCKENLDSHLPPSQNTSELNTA
UniProt P21860, whole entry: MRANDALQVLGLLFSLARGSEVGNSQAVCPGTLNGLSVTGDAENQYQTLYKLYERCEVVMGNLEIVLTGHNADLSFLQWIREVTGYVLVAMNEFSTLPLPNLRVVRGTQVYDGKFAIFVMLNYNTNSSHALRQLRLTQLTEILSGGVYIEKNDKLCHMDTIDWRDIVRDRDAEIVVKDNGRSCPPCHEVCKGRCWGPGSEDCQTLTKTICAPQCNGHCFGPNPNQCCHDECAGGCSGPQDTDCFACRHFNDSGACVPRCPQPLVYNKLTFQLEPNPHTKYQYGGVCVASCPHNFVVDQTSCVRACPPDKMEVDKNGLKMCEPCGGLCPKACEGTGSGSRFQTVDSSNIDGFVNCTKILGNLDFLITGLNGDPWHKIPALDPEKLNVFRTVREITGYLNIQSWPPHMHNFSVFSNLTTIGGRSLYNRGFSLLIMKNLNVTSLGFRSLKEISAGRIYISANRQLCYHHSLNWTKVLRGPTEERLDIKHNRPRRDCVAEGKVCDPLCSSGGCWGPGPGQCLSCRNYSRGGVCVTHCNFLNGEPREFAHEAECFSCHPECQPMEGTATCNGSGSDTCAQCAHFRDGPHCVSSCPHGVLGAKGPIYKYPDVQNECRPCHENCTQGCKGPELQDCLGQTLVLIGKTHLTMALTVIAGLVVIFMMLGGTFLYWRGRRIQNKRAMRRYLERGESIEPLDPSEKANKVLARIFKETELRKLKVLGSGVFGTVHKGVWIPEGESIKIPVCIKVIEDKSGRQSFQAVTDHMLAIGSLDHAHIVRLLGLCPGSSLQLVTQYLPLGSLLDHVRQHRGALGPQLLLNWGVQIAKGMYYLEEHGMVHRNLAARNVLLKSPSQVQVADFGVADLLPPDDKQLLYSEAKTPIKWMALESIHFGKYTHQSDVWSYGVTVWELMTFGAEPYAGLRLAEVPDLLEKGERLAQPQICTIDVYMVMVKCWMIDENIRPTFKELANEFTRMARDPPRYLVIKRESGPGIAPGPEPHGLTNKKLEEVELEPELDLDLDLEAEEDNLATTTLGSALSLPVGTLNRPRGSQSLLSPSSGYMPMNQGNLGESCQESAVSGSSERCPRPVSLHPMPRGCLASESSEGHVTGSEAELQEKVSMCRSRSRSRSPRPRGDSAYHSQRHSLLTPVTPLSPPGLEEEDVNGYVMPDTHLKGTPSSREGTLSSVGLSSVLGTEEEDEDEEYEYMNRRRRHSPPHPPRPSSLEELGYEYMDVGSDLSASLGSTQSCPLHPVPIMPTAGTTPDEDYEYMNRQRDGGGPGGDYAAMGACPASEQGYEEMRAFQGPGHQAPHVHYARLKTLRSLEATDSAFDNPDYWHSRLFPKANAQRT
UniProt P06241, whole entry, looked up: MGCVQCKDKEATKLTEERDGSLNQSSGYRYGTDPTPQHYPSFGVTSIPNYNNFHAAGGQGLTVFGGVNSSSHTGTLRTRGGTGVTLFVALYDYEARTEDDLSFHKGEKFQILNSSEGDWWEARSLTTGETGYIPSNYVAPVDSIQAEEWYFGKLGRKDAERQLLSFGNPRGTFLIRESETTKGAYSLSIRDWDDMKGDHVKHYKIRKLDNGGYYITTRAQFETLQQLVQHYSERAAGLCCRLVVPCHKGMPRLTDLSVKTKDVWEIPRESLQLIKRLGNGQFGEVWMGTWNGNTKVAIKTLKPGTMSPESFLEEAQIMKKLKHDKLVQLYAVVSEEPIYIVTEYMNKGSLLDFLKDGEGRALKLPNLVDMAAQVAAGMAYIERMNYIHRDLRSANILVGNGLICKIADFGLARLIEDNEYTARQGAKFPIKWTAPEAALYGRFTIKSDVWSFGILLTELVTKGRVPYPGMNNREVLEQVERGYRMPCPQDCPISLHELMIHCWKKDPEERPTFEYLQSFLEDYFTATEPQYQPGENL
UniProt P49840: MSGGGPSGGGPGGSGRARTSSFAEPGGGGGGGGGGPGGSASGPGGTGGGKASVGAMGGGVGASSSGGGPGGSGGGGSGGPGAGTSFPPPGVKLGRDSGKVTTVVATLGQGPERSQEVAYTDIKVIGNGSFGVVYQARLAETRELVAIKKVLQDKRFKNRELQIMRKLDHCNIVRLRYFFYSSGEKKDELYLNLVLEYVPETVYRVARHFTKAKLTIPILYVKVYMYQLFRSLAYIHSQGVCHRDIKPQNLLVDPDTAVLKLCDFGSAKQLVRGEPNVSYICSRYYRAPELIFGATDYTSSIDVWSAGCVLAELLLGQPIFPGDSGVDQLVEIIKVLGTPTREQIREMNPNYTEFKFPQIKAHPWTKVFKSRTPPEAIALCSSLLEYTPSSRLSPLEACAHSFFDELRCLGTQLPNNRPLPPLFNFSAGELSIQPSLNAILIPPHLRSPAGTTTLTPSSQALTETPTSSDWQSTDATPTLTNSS
UniProt P31152, whole entry: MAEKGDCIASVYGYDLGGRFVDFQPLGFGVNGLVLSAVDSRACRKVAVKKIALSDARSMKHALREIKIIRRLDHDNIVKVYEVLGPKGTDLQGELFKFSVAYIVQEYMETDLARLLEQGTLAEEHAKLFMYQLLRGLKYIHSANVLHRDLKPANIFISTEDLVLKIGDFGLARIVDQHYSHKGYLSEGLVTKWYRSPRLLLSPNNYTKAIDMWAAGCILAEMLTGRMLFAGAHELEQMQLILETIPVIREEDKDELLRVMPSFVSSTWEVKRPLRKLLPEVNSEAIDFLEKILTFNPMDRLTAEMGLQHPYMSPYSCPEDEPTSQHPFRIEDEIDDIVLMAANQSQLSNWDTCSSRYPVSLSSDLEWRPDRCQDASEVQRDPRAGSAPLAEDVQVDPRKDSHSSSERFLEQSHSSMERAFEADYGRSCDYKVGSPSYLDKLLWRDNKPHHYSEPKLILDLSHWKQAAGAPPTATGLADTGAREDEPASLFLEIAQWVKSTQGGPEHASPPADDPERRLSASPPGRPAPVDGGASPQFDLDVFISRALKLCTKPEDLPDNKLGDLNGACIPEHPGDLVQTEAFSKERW
UniProt P53667: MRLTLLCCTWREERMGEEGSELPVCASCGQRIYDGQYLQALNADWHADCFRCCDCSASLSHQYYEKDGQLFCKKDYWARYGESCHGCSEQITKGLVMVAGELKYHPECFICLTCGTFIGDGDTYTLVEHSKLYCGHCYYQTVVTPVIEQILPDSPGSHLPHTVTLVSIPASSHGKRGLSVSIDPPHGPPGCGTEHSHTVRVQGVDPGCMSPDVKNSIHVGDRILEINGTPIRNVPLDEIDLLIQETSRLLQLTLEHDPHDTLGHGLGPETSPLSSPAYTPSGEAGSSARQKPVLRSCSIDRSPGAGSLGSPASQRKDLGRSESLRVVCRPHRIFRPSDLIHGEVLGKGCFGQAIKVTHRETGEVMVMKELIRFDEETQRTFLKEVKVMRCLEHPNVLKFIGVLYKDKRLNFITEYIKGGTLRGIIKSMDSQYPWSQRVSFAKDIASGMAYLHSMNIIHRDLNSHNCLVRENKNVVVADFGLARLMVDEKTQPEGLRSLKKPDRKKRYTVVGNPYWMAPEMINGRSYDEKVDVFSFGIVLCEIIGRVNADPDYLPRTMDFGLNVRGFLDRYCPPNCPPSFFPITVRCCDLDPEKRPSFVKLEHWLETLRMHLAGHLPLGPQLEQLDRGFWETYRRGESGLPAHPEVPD
UniProt P29597: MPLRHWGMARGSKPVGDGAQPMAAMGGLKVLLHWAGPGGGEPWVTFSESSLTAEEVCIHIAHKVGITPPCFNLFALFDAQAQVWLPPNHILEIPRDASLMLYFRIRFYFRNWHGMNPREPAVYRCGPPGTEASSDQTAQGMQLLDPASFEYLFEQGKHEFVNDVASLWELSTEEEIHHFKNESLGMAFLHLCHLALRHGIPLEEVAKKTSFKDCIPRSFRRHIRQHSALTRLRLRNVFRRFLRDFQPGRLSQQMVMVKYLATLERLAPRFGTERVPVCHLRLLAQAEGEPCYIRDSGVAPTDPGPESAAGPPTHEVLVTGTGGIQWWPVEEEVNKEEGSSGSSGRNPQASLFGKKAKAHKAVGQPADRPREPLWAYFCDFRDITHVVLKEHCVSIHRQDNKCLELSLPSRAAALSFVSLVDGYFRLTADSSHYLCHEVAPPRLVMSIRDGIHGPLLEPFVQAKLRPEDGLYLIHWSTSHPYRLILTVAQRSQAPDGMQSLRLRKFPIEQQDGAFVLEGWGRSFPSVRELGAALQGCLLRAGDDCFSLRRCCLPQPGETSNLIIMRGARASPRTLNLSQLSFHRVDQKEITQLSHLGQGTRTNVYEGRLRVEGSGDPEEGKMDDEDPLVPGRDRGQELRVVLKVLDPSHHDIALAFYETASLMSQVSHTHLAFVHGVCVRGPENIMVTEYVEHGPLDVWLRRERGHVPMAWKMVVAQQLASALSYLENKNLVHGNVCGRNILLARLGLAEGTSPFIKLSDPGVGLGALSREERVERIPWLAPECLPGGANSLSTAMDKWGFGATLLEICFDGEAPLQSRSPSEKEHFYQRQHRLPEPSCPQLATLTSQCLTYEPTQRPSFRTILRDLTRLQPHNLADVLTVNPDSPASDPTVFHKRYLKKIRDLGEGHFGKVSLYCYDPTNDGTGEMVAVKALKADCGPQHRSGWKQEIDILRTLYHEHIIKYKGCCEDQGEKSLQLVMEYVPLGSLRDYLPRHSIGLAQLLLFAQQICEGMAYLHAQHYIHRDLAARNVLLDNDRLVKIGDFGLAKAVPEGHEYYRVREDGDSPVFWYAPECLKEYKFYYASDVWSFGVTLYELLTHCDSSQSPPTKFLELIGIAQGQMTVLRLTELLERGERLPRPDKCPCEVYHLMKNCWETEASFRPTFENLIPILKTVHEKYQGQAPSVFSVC
UniProt Q16288, whole entry, looked up: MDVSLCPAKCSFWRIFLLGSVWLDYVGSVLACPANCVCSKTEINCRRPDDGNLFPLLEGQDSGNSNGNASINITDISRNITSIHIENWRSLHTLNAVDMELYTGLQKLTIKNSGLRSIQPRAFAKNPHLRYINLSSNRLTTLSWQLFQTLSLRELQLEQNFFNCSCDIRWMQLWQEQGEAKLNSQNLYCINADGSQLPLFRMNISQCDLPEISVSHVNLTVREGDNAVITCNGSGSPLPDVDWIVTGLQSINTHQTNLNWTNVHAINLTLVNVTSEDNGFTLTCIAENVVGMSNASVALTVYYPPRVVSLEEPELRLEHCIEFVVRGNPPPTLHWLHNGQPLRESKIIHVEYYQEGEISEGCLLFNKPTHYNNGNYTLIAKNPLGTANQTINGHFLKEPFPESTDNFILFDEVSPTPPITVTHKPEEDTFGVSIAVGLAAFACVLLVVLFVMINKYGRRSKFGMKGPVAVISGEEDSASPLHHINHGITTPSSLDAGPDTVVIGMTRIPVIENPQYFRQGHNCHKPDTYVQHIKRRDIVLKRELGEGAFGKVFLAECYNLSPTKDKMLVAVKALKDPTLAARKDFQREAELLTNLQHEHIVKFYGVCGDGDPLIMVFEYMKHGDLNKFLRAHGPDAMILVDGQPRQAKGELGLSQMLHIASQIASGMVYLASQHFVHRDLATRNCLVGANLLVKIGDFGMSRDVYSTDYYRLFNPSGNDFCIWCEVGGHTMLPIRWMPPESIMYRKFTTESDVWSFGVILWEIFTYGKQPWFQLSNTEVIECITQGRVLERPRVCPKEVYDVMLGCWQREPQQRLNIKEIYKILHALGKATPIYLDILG
UniProt P06239: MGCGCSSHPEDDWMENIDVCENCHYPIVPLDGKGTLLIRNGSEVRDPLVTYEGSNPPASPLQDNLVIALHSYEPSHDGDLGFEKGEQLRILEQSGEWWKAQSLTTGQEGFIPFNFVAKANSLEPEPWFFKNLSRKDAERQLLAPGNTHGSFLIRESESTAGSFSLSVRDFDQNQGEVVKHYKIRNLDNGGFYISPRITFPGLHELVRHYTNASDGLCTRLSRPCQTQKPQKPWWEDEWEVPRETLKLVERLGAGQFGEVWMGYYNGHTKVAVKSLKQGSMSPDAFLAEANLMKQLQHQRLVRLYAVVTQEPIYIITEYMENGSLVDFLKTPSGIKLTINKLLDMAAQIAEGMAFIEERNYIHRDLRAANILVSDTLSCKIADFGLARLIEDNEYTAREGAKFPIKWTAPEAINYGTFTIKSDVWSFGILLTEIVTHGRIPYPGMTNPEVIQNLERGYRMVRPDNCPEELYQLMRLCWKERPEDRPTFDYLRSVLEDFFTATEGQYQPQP

Row | Target | number of time points [1] | number of time points [2] | number of time points [3] | number of time points [4] | number of time points [5] | number of time points [6] | number of time points [7] | number of time points [8] | number of time points [9] | number of time points [10]
1 | PIK4CA (UniProt P42356) | 0 | 0 | 1 | 0 | 4 | 0 | 0 | 0 | 0 | –
2 | MAP4K2 (UniProt Q12851) | 0 | 0 | 0 | 0 | 0 | 0 | 0 | 0 | 0 | –
3 | CDK6 (UniProt Q00534) | 0 | 0 | 0 | 0 | 2 | 0 | 0 | 0 | 0 | –
4 | ERBB3 (UniProt P21860) | 0 | 0 | 3 | 0 | 5 | 0 | 0 | 0 | 0 | –
5 | ROR2 (UniProt Q01974) | 0 | 0 | 0 | 0 | 0 | 0 | 0 | 0 | 0 | –
6 | AURKC (UniProt Q9UQB9) | 0 | 0 | 0 | 0 | 0 | 0 | 0 | 0 | 0 | –
7 | EPHA2 (UniProt P29317) | 5 | 0 | 2 | 0 | 0 | 0 | 0 | 0 | 0 | –
8 | FYN (UniProt P06241) | 0 | 0 | 0 | 0 | 0 | 0 | 0 | 0 | 0 | –
9 | CSK (UniProt P41240) | 0 | 0 | 0 | 0 | 0 | 0 | 0 | 0 | 0 | –
10 | RAF1_S257L (clone: RAF1_mut) (UniProt P04049) | 0 | 0 | 4 | 0 | 0 | 2 | 0 | 0 | 0 | –
11 | PTK2B (UniProt Q14289) | 0 | 0 | 1 | 0 | 0 | 0 | 0 | 0 | 0 | –
12 | PDK1 (UniProt Q15118) | 0 | 0 | 2 | 0 | 0 | 0 | 0 | 0 | 0 | –
13 | INSRR (UniProt P14616) | 0 | 0 | 2 | 0 | 0 | 0 | 0 | 0 | 0 | –
14 | GSK3A (UniProt P49840) | 0 | 0 | 0 | 0 | 0 | 0 | 0 | 0 | 0 | –
15 | TEC (UniProt P42680) | 0 | 0 | 0 | 0 | 0 | 0 | 0 | 0 | 0 | –
16 | RPS6KA1 (UniProt Q15418) | 0 | 0 | 0 | 0 | 0 | 0 | 0 | 0 | 0 | –
17 | PBK (UniProt Q96KB5) | 0 | 0 | 0 | 0 | 0 | 0 | 0 | 0 | 0 | –
18 | JAK1 (UniProt P23458) | 0 | 0 | 3 | 0 | 0 | 0 | 0 | 0 | 0 | –
19 | CHEK2 (UniProt O96017) | 0 | 0 | 0 | 0 | 0 | 0 | 0 | 0 | 0 | –
20 | AURKA (UniProt O14965) | 0 | 0 | 0 | 0 | 0 | 0 | 0 | 0 | 0 | –
21 | RAF1 (UniProt P04049) | 0 | 0 | 2 | 0 | 0 | 0 | 0 | 0 | 0 | –
22 | MAPK4 (UniProt P31152) | 0 | 0 | 1 | 1 | 0 | 0 | 0 | 0 | 0 | –

Row | Target | number of time points [1] | number of time points [2] | number of time points [3] | number of time points [4] | number of time points [5] | number of time points [6] | number of time points [7] | number of time points [8] | number of time points [9] | number of time points [10]
23 | LIMK1 (UniProt P53667) | 0 | 0 | 2 | 5 | 0 | 0 | 0 | 0 | 0 | –
24 | LMTK2 (UniProt Q8IWU2) | 0 | 0 | 0 | 0 | 0 | 0 | 0 | 0 | 0 | –
25 | PRKAA1 (UniProt Q13131) | 0 | 0 | 1 | 0 | 0 | 0 | 0 | 0 | 0 | –
26 | STK38 (UniProt Q15208) | 0 | 0 | 0 | 0 | 0 | 0 | 0 | 0 | 0 | –
27 | LIMK2 (UniProt P53671) | 0 | 0 | 3 | 0 | 0 | 0 | 0 | 0 | 0 | –
28 | TYK2 (UniProt P29597) | 4 | 0 | 2 | 0 | 0 | 0 | 0 | 0 | 0 | –
29 | ZAP70 (UniProt P43403) | 0 | 0 | 0 | 0 | 0 | 0 | 0 | 0 | 0 | –
30 | SPHK1 (UniProt Q9NYA1) | 0 | 0 | 1 | 0 | 0 | 0 | 0 | 0 | 0 | –
31 | IRAK3 (UniProt Q9Y616) | 0 | 0 | 0 | 0 | 5 | 0 | 0 | 0 | 0 | –
32 | HER2 (UniProt P04626) | 4 | 0 | 0 | 0 | 0 | 0 | 0 | 0 | 0 | –
33 | FGFR2 (UniProt P21802) | 0 | 0 | 3 | – | 0 | – | – | 0 | 0 | –
34 | ERN1 (UniProt O75460) | 0 | 0 | 0 | 0 | 0 | 0 | 0 | 0 | 0 | –
35 | EGFR_L718V (UniProt P00533) | – | – | – | 0 | 0 | 0 | 0 | – | – | –
36 | EGFR_G719S (UniProt P00533) | – | – | – | 0 | 0 | 0 | 0 | – | – | –
37 | SYK (UniProt P43405) | 0 | 0 | – | 0 | 0 | 0 | 0 | 0 | 0 | –
38 | PLK1 (UniProt P53350) | 0 | 0 | – | 0 | 0 | 0 | 0 | 0 | 0 | –
39 | EGFR_L858R (UniProt P00533) | – | – | – | 0 | 0 | 0 | 0 | – | – | –
40 | NTRK3 (UniProt Q16288) | 0 | 0 | 1 | 0 | 0 | – | – | 0 | – | –
41 | BLK (UniProt P51451) | 0 | – | – | – | 0 | 0 | 0 | – | 0 | –
42 | EGFR_G719S_T790M (UniProt P00533) | – | – | – | 0 | 0 | 0 | 0 | – | – | –
43 | BMX (UniProt P51813) | – | 0 | 4 | 0 | 0 | 0 | 2 | 0 | 0 | –
44 | EGFR_T790M (UniProt P00533) | – | – | – | 0 | 0 | 0 | 0 | – | – | –

Another view of part of the listing above:
Row	Target	number of time points [1]	number of time points [2]	number of time points [3]	number of time points [4]	number of time points [5]	number of time points [6]	number of time points [7]	number of time points [8]	number of time points [9]	number of time points [10]
25	PRKAA1 (UniProt Q13131)	0	0	1	0	0	0	0	0	0	–
26	STK38 (UniProt Q15208)	0	0	0	0	0	0	0	0	0	–
27	LIMK2 (UniProt P53671)	0	0	3	0	0	0	0	0	0	–
28	TYK2 (UniProt P29597)	4	0	2	0	0	0	0	0	0	–

(further entries)

Row | Target | number of time points [1] | number of time points [2] | number of time points [3] | number of time points [4] | number of time points [5] | number of time points [6] | number of time points [7] | number of time points [8] | number of time points [9] | number of time points [10]
45 | FGFR1 (UniProt P11362) | 0 | 0 | 0 | 0 | 5 | – | – | 0 | 0 | –
46 | BTK (UniProt Q06187) | 0 | 0 | – | 0 | 0 | 0 | 0 | 0 | 0 | –
47 | ABL1 (UniProt P00519) | – | 0 | 4 | 0 | 0 | – | – | 0 | – | –
48 | EGFR (UniProt P00533) | – | – | – | 0 | 0 | 0 | 0 | – | – | –
49 | CSNK1D (UniProt P48730) | 0 | 0 | – | 0 | 0 | 0 | 0 | 0 | 0 | –
50 | BRAF_V600E | 0 | 0 | – | 0 | 5 | 0 | 0 | 0 | 0 | 1
51 | EGFR_L861Q (UniProt P00533) | – | – | – | 0 | 0 | 0 | 0 | – | – | –
52 | PTK2 (UniProt Q05397) | 0 | 0 | 2 | 0 | 0 | – | – | 0 | 0 | –
53 | PDGFRB (UniProt P09619) | 0 | 0 | 1 | 0 | 0 | 0 | 0 | – | 0 | –
54 | ERBB4_R711C (clone: ERBB4_mut) (UniProt Q15303) | 0 | 0 | 3 | 0 | 0 | – | – | 0 | 0 | –
55 | LCK (UniProt P06239) | – | 0 | 0 | 0 | 0 | – | – | 0 | – | –
56 | RET (UniProt P07949) | 0 | 0 | 2 | 0 | 0 | – | – | 0 | 0 | –
57 | CSF1R (UniProt P07333) | 0 | 0 | 0 | 0 | 0 | – | – | 0 | – | –
58 | CSNK1A1 (UniProt P48729) | 2 | – | 0 | 0 | 0 | 0 | 0 | 0 | 0 | –
59 | CDK5 (UniProt Q00535) | 0 | 0 | 0 | 0 | 0 | – | – | 0 | 0 | –
60 | LYN (UniProt P07948) | 0 | 0 | 0 | 0 | 0 | – | – | 0 | 0 | –
61 | ALK (UniProt Q9UM73) | 0 | 0 | 2 | 0 | – | 0 | 0 | 0 | 0 | –
62 | FGFR3 (UniProt P22607) | 0 | 0 | 0 | 0 | 0 | – | – | 0 | 0 | –
63 | RET_M918T (clone: RET_mut) (UniProt P07949) | 0 | 0 | 0 | 0 | 0 | – | – | 0 | 0 | –
64 | FLT3 (UniProt P36888) | 0 | 0 | 4 | 0 | 0 | – | – | 0 | 0 | –

From the supplement of paper PMC12823440, “Inhibitors supercharge kinase turnover through native proteolytic circuits” (Nature, 2025)
